Measured values: patent publication US20100043097A1
Results are given in words; binding and its absence hold for the method and conditions named. Binding seen in cells or lysates may run through a third protein. Some binding calls cover weakened binding; strength is not graded here.

Sequences of proteins named here, by UniProt entry; tags and fusion partners are left off. A change or cut given only in a name is not applied to a line headed by its entry. Residues count along the entry.
UniProt O22476, residues 24-1196: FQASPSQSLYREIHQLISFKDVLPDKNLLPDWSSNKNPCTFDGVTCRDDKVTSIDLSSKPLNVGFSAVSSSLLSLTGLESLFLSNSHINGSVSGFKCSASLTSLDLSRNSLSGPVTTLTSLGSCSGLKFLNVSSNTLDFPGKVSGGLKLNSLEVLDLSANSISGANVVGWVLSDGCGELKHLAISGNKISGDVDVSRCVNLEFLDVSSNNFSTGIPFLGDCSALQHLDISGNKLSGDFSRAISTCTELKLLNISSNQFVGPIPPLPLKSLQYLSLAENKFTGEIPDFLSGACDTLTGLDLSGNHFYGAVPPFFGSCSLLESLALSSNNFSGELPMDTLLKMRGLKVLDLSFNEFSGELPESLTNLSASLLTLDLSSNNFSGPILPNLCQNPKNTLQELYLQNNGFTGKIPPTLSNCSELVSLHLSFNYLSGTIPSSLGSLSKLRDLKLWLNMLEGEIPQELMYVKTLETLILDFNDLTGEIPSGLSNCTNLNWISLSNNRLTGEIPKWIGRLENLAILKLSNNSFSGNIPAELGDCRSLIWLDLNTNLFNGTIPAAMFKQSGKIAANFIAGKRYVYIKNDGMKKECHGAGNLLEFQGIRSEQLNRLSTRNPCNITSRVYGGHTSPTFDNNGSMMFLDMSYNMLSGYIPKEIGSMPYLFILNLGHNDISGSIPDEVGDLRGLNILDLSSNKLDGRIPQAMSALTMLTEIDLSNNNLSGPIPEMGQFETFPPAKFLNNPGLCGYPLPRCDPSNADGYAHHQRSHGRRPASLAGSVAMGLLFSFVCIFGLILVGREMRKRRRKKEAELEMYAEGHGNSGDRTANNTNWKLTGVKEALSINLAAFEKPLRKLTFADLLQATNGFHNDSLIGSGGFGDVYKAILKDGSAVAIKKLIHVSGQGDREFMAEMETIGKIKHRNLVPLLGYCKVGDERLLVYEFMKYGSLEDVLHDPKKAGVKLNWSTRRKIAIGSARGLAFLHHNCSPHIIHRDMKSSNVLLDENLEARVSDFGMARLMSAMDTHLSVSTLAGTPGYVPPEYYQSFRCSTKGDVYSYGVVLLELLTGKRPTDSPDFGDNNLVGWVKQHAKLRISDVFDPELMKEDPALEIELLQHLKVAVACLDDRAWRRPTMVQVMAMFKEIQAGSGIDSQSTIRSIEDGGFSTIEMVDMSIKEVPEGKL
UniProt Q944A7: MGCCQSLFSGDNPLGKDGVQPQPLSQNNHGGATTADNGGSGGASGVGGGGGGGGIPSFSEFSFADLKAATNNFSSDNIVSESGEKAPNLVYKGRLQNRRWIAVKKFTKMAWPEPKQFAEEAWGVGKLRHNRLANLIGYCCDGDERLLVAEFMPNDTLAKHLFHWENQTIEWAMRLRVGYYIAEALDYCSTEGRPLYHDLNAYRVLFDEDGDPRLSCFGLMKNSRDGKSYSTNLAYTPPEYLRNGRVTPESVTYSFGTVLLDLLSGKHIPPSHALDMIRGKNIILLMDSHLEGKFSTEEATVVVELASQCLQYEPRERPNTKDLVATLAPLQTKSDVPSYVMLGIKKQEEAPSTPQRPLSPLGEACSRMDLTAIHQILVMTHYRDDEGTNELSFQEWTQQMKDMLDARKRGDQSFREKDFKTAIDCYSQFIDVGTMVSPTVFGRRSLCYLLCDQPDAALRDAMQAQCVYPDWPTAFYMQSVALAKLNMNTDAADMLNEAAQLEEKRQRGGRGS

Target: BRI1-GFP (Arabidopsis thaliana) (UniProt O22476)
Assay: co-immunoprecipitation from microsomal proteins with anti-BRK1 antibodies, anti-GFP immunoblot (FIG. 9)

BRK1 (BR-regulated kinase 1, At4g35230) (from UniProt Q944A7 2-512) (enzyme)
binding: binds
